Assay results taken from the supplement of paper PMC5949888.
Most values lie at the floor of the assay. Slopes are relative: functional sequences can read slightly below zero.

Tested on: Saccharomyces cerevisiae PS128 hsf1 delta, HSF1(1-493) fusion
Assay: growth estimate (transactivation domain function in HSF1 fusion, heat-shock survival) (a.u. (slope of normalised read count over time)); higher = stronger growth at 37°C, i.e. more transactivation activity
Conditions: library: random library

Substance | growth estimate
DFCKSREKAVCIRPDI | < -0.25
WAPCMVEIAGSAQAEVLVPG | < -0.25
KSTRSGTGSAGPMRKKEFQH | < -0.25
RPYQRMGLTTQGQVGLCLTS | < -0.25
VLPVLNDRDR | -0.243
GFNV | < -0.25
PALGGAQ | < -0.25
CAARRIRNSPMYPMSTRPPK | < -0.25
WGVWTFSLCSWQ | < -0.25
NRFHGYHGKGGHRGHTQKCV | < -0.25
PVLRSSMLTIKRPHMWWRPG | < -0.25
LPTLTSPRKILRQLLNGPAW | < -0.25
LRLCVFRFVVVTKTNDTVLP | -0.246
LSIDSLLTVGSCFQMSTQTC | < -0.25
FVLATWSLGGPLQVTRLTHK | < -0.25
RRSS | < -0.25
DFVLSWYHCGESREY | < -0.25
LRIARV | < -0.25
SLDLRGPLQIFCV | < -0.25
CRFSVPNFMLLYSVAEMHMS | -0.208
FLGSPKDDELLSSGHATDSF | < -0.25
CRHDSR | -0.231
SQESSGQIY | < -0.25
VEVDPAGLISVRWRTATWQ | < -0.25
VDLISRRMSFVISLLQGSRR | < -0.25
CDRSAFSAQTQRCWSILRWL | 0.126

Substance | growth estimate
LLYSNPFVVG | -0.246
PYRHGAGDLRRQVVVTQFRS | < -0.25
DLVGTAYRGDRWLLNIEAKS | < -0.25
ESE | < -0.25
QGEIGALWFCMGPTLLGAPI | < -0.25
PVTSP | < -0.25
TSYYI | -0.0463
LTTQR | -0.226
FPFSASLRFIIVEMRGNDAF | < -0.25
RATDELVAIRAGTRSWDCWV | < -0.25
GRREPDSS | < -0.25
AGKLGGPRN | < -0.25
SLADGGGRLPRKCLVGWTLG | < -0.25
VVTVGPSYSHVVL | < -0.25
SGDGGPDRAERSKYGEGNNR | < -0.25
ATIPDRLR | -0.243
FQLASSAMVSDDQIMVEAVK | < -0.25
VPWAARLVRIAQTHFWQIDA | < -0.25
LLALYPPVVLPGPLCASLGC | < -0.25
FPLRSGI | < -0.25
LPTPGRG | < -0.25
IQRYLGSAVTI | < -0.25
VRKSASFLGPTMLRGPLTRE | < -0.25
DMPPCVGKHCPQDAVGTSTR | < -0.25
LGFVSVG | < -0.25
IVRVFHNDLSDYWAHDWRVP | -0.0659

Substance | growth estimate
FSEQNVPLGYALSYAVV | < -0.25
LVVSGSV | < -0.25
GDWDSTPVRSGDSHMYVDRK | < -0.25
LSADLVYTGLVLLRSISHST | < -0.25
FGPPS | < -0.25
KIRASTFGMSLCEYFGASQL | < -0.25
GSCSLACCTLEMQGRSIIMN | < -0.25
RTTR | < -0.25
DINND | -0.167
LSRFSSGVAGLPVDEEKVLR | < -0.25
QPQALIEWCQRRIAMRFGFG | < -0.25
SSRGHRARSSSPGAARTVKF | < -0.25
YAVGMGSGGGRVLVKTQSTR | < -0.25
VHPGPGIAEPPKLEWTRSCS | < -0.25
LDPRSGGEVYGLTQVAWGPP | < -0.25
YLAGVFAN | < -0.25
TGSWIAHESLFWNDSSKEGC | < -0.25
RPDV | < -0.25
TPRAQ | < -0.25
LIEGVRGQLAMR | < -0.25
SRNSFSDAYPEEPLYNHARL | < -0.25
ASGRDETGLSTADVQSTLIG | -0.243
VRGRKAPVKPRCYWTNFLCE | -0.248
TGIFDRNWSAPGITKPGYRR | < -0.25
APGRGYGDGLGVRKKRKRLE | < -0.25
MSRYTEMRICFNPAREAVG | < -0.25

Substance | growth estimate
FGVLSAKLLWFVPYSEIVLG | < -0.25
PHVYN | < -0.25
CRKGAEVPRWCPARATLLLR | < -0.25
VLNSCSGEPRPATNAGIGYS | -0.245
HRTQGE | < -0.25
FECHTVDMSEDRARRK | < -0.25
SYLSIPGNCVGRQNCRYHLN | < -0.25
PGMPAIIYSVGMLEVFDLYR | < -0.25
TPR | < -0.25
ARLQHQGSPRAASPWRGIAT | < -0.25
YRTLPLSLRVRFQARRALSR | < -0.25
HRVAVQCHPEAATCIRPTAR | < -0.25
FLPHNGSIVG | < -0.25
GKIRIGLMCRTLELL | < -0.25
GSPPEPES | < -0.25
SPSAEVAPSMILTLASLSHG | < -0.25
KLHRVGNLNHATDVGT | -0.244
PRTYRGLGLRD | < -0.25
GSIRH | 0.613
QTVSALFLATVGHAFPRYFQ | < -0.25
GGFNLWSHLRSTSEDYNPYI | -0.243
VIGTLSGVRPQSTEVSWK | < -0.25
RFVCLARMTDLELAGPSFGE | < -0.25
KPFILGTGHPRSPDTL | < -0.25
GACNAGPPTEFICPE | < -0.25
RVKKTAAQNM | < -0.25

Part of the list above, as comma-separated lines:
Substance,growth estimate
FLPHNGSIVG,< -0.25
GKIRIGLMCRTLELL,< -0.25
GSPPEPES,< -0.25
SPSAEVAPSMILTLASLSHG,< -0.25

Reformatted as comma-separated lines: part of the list above
Substance,growth estimate
HRVAVQCHPEAATCIRPTAR,< -0.25
FLPHNGSIVG,< -0.25
GKIRIGLMCRTLELL,< -0.25
GSPPEPES,< -0.25
SPSAEVAPSMILTLASLSHG,< -0.25
KLHRVGNLNHATDVGT,-0.244

More records follow:

Substance | growth estimate
GRSRVGKRTAEKIRNAGAGP | < -0.25
HEGLPQRTWSKKIRYDLKQK | 10.4
LRERYAGLELADNGCDRLG | < -0.25
PKMPKQEPGPAMRPTS | < -0.25
KRL | < -0.25
SIASCCHDLVSSVRAPSIRV | < -0.25
MNG | < -0.25
REAEG | -0.203
CTGASRVIISDSSTRPSVSR | < -0.25
YCLTRSQSSWLRGGLSAVSM | < -0.25
VSERFYLGTPGRNRIATCAT | < -0.25
GFRMRVESTRSYGCPAL | < -0.25
LPVITLRNPQMRASLNKPLS | < -0.25
HPSYYVCRIHAHVNPGPRKS | < -0.25
RLLTGGGWGFYGDITAPRVK | < -0.25
CGALPQRSEN | < -0.25
SAVNGNARGRPMAYSRWVRG | < -0.25
TPPVPRRRMG | < -0.25
LLRMPVGLVSVLHGID | < -0.25
WLNRQKRERVLGRERGNVLS | < -0.25
SRVVLQGPWFNVVPRWWFPQ | < -0.25
AGGGPYGGQLAVLAARLGEG | < -0.25
FTALGARCIGFLRRLVETIE | < -0.25
KSGCFC | < -0.25
SVDTPVSRYTVQFRVRPCA | < -0.25
GPENSRGWVPCNRS | < -0.25

Substance | growth estimate
RFMEK | < -0.25
WPP | < -0.25
LAPVINREISANRQVARGLD | < -0.25
TDVGL | -0.245
VWVKGAWVPHGG | < -0.25
GTHERGWSPQLAPSDSVSLS | < -0.25
LYLVWDPVTAHSLEPADVFL | < -0.25
DADRQRDPYRALDEQSRGGA | < -0.25
RGEFMKLACNPFFHKVAACS | < -0.25
LEMIPKGSLIVANVRSGP | < -0.25
ASYCVPLVLHVRGDSDRPSR | < -0.25
GWGVADSNPGNRGPCPTIWI | < -0.25
VVLRSARCRQRDERSCRQGI | < -0.25
LHQSG | < -0.25
AHSQGNCREESGRTIRRPGT | < -0.25
CTRLVLDKKYFRAPLLIPNP | < -0.25
VALLHLFGALELRGLSSLQS | < -0.25
AWVSCRDAETQLERRYGCHL | < -0.25
FNKTSGRLRLLESRRVSRVP | < -0.25
INAVENSGSGSTCNT | < -0.25
SSSYVCYAGSVCT | < -0.25
QLSVVNPEKSSQGSLHKTSP | < -0.25
ITL | < -0.25
PTLSVCKVPSQIPTCPASLV | < -0.25
RGIRSRGEMPSDPGGY | < -0.25

Looked up one by one from the entries so far (two):
Substance | growth estimate
ASYCVPLVLHVRGDSDRPSR | < -0.25
DADRQRDPYRALDEQSRGGA | < -0.25
